According to PubChem BioAssay AID743255 (National Center for Advancing Translational Sciences (NCATS), 2014):
In all, about 390,000 compounds went through this assay and about 910 (0.23%) were called active. Inconclusive results, whose numbers are uncertain, are shown with a selection of clear calls. The call rests on the fitted dose curve; in most records, active means well fitted inhibition curve with a large enough effect; inconclusive means small, poorly fitted or top-dose-only effect; inactive means no such curve, though single readings can be large or run the other way. Potencies of inconclusive entries are doubtful fits and often do not repeat.

The chains behind the UniProt entries cited, without tags or fusion partners. Where a name states a change or a piece, a line headed by the entry shows the natural chain unless it says otherwise.
UniProt O94782: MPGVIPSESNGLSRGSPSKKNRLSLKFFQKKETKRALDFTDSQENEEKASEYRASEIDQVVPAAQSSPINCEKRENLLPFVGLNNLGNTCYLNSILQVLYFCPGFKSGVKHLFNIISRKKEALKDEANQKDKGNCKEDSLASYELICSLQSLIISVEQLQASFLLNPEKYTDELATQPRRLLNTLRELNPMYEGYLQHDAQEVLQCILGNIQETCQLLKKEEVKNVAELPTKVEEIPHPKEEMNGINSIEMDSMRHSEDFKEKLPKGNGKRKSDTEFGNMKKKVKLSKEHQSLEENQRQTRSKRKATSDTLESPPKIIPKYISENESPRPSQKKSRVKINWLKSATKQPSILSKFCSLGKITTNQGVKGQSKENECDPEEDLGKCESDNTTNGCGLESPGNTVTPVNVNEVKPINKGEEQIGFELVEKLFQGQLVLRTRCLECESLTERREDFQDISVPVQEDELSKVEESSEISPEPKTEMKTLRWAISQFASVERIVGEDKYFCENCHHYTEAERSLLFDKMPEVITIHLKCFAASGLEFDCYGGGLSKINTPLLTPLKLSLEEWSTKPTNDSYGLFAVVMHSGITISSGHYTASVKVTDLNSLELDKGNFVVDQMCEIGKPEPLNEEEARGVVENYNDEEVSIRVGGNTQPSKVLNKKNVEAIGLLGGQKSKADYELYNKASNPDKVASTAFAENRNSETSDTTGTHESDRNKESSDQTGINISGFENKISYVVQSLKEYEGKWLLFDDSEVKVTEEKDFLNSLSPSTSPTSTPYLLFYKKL

Target: Ubiquitin carboxyl-terminal hydrolase 1 (Homo sapiens) (UniProt O94782)
Experiment: Inhibitors of USP1/UAF1: Primary Screen; further: nearly all actives have a fitted effect of over 60% in size
Settings: recombinant USP1/UAF1, Ub-Rhodamine cleavage fluorescence; activity change, negative = inhibition: at 57.1 µM (top of the series)
Outline: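 High-throughput fluorogenic screen: 1nM USP1/UAF1 complex, Ub-Rho substrate 150nM final, 50mM HEPES pH 7.8 with 0.5mM EDTA, 0.1 mg/ml BSA, 1mM TCEP and 0.01% Tween-20.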
On the % scale 0 is the no-effect control and ±100 the full control effect; potency means the concentration at half of the fitted maximal effect.

Activity change, negative = inhibition, inactive:
Cc1cccc(C(=O)NC(NCCc2ccccc2)C(Cl)(Cl)Cl)c1 (stereo unspecified) -0.937%
O=C(CN(C1CCCCC1)S(=O)(=O)c1ccc(F)cc1)NCC1CCCO1 (stereo unspecified) -18.7%
C=CCSc1n[nH]c(-c2ccc(OCCC)cc2)n1 -7.67%
CCC(C)c1ccccc1OCC(=O)Nc1ccc(S(=O)(=O)Nc2cc(C)on2)cc1 (stereo unspecified) -36.9%
CCC(C)c1ccc(-n2c(=O)c3ccccc3n3c(=S)[nH]nc23)cc1 (stereo unspecified) -19.9%
CSc1nsc2nc(=O)c(/C=C3\C(C)=Nc4ccccc43)c(N)n12 -14.4%
N#Cc1c(-c2ccccc2)cc(-c2ccc3c(c2)OCO3)[nH]c1=O -18.2%
CCOC(=O)c1cc(-c2ccccc2)n(CC(=O)Nc2ccccc2OCC)c1C -9.21%
O=C(Oc1cccccc1=O)c1ccccc1 -18.3%
COc1ccc2c(c1)/C(=C\c1cccc(/C=C3/C(=O)Nc4ccc(OC)cc43)n1)C(=O)N2 -16.8%

Potency, inconclusive:
Cc1cc(Cl)ccc1OC(C)C(=O)Nc1ccc(C(=O)Nc2ccccc2C(=O)O)cc1 (stereo unspecified) 39.8 µM [inhibitor, partial curve]
CCc1ccc(NC(=O)c2ccc(Cn3nc(N4CCN(c5ccccc5)CC4)ccc3=O)o2)cc1 25.1 µM [inhibitor, partial curve, poor fit]
N#CC(=Nc1ccccc1)c1ccccc1 12.6 µM [inhibitor, partial curve, poor fit]
CC1CCN(CC(O)COc2cccc(F)c2)CC1 (stereo unspecified) 0.355 µM [inhibitor, full curve, poor fit]
Fc1ccc(-c2cc(-c3ccccc3)c3c(n2)-c2ccccc2OC3)cc1 44.7 µM [inhibitor, partial curve, poor fit]
O=C(O)CCCCCCCCCCC1CCC(O)C1O (stereo unspecified) 39.8 µM [inhibitor, partial curve, poor fit]
O=c1oc(CCCO)cc2ccc(C#Cc3cccnc3)cc12 0.398 µM [inhibitor, full curve, poor fit]
O=C(NCc1ccccc1)C(c1ccccc1)N(C(=O)c1csnn1)C1CC1 (stereo unspecified) 8.91 µM [inhibitor, single point]
Cc1ccc(-n2cc(CN(C)Cc3nccn3C)c(-c3ccc(F)cc3)n2)cc1 0.355 µM [inhibitor, partial curve, poor fit]
CCOc1ccc(C(=O)Nc2cccc([N+](=O)[O-])c2)cc1Br 44.7 µM [inhibitor, partial curve, poor fit]
COc1cc(/C=N/Nc2nc(=O)[nH]nc2C)cc([N+](=O)[O-])c1O 31.6 µM [inhibitor, partial curve]

Random excerpt: two entries already listed, in no set order.
Potency, inconclusive:
O=c1oc(CCCO)cc2ccc(C#Cc3cccnc3)cc12 0.398 µM [inhibitor, full curve, poor fit]
COc1cc(/C=N/Nc2nc(=O)[nH]nc2C)cc([N+](=O)[O-])c1O 31.6 µM [inhibitor, partial curve]
